# PubChem BioAssay AID1259415 (National Center for Advancing Translational Sciences (NCATS), 2018)
# Screen size: about 410,000 compounds; about 18,000 (4.4%) were called active. This list was built around the results that the source calls inconclusive (neither active nor inactive); the mix of calls is not that of the screen. No stated cut-off is given here; in the data, active means activity change below about -60%; inconclusive means no clear call, values can overlap the other calls; inactive means above about -39%.
# Test: qHTS Assay for inhibitors of the human cytomegalovirus (HCMV)
# Details: HFF cells, HCMV-luciferase reporter, 72 h; at 57.5 µM; stronger effect = lower value
# Text: NCGC Assay Overview: Infection with human cytomegalovirus (HCMV) continues to pose significant threats for pregnant women and immunocompromised hosts. HCMV causes serious morbidity and mortality in transplant recipients, and congenital HCMV is the leading infectious cause of mental retardation and deafness in children. In the 1990s, the annual costs associated with the disease burden of congenital CMV were estimated at around $2 billion. A HCMV vaccine is not available yet and HCMV therapies result in intolerable side effects and emergence of drug resistant viruses. […] Towards this goal we have developed and characterized a luciferase HCMV reporter that was initially used in 96 well plates and then optimized to 1536-well plates for utilization in screening of the MLSMR collection, the NGCG diversity collection and the NCGC Pharmaceutical Collection of approved and investigational drugs.
# NCGC Assay Protocol Summary:
# This is a cell-based assay for HCMV inhibition in HFFs cells. The screening used 2 compound doses and the HCMV-luciferase at MOI of 1 PFU/cell. Cells were treated and infected with HCMV. At 72 h post infection cell lysates were collected and luciferase activity was determined using the Glomax-Multi + Detection System (Promega, Madison, WI). Data were normalized to the controls for basal activity (buffer only) and known HCMV inhibitors Salinmoycin.
# 1536-well assay protocol for the assay:
# (1) Add 3 ul CMV/HFF cell culture. 1000 cells/well in DMEM nirmal media.
# (2) Incubate 16 hr at 37C.
# (3) Add 23 nl control compound, 10uM of Salinomycin.
# (4) Add 23 nl compounds in DMSO solution.
# (5) Add 3 ul CMV suspension. Final 1 puf/ul, Virus stock 2000pfu/ul
# (6) Incubate 72 hrs at 37C.
# (7) Add 4 ul OneGlo Luc Reagent.
# (8) Incubate 5 min at room temperature.
# On the % scale 0 is the no-effect control and ±100 the full control effect.
row,SMILES,"activity change, negative = inhibition"
1,CCOC(=O)c1c(-c2ccccc2)csc1NC(=O)c1cc(-c2ccc(C)c(F)c2)on1,inactive: 0.63%
2,NC(=O)C1c2ccccc2Oc2ccccc21,inconclusive: -56.3%
3,CCOC(=O)c1[nH]c(C)c(C(=O)Nc2ccc3c(c2)OCCO3)c1C,active: -74.4%
4,CCOC(=O)C1CCN(C(=O)CSc2n[nH]c(-c3ccc(F)cc3)n2)CC1,inactive: 9.87%
5,Cc1cc(C(=O)C(=O)Nc2nnc(C(C)C)s2)c(C)n1-c1ccccc1,active: -87.3%
6,CCCc1nnc(NC(=O)CCC(=O)N2CCN(Cc3cc(F)ccc3OC)CC2)s1,inconclusive: -45%
7,NS(=O)(=O)c1ccc(N/N=C/c2cn(-c3ccccc3)nc2-c2ccccc2)c([N+](=O)[O-])c1,active: -81%
8,COc1ccc(-c2ccc(C(=O)NCc3ccc(C(F)(F)F)cc3)c3occc23)c(C)c1,inconclusive: -53.8%
9,Cc1cc(-c2cccs2)c2c(n1)sc1c(=O)[nH]c(=O)[nH]c12,inconclusive: -51.7%
10,Cc1cccc2cc(C#N)c(NCCNC(=O)NC3CCCCC3)nc12,inconclusive: -40.9%
11,COc1cc(NC(=O)COC(=O)c2[nH]c(C)c(C(C)=O)c2C)cc(OC)c1,inconclusive: -59.8%
12,COC(=O)C(C(=O)OC)c1ccc(-n2cccc2)cc1,inconclusive: -44.4%
13,Cc1ccn(C(=O)c2ccc(NC(=O)CC(C)C)cc2)n1,inactive: 32%
14,CC(C)CCNC(=O)C(C)N(C(=O)c1snc(C(N)=O)c1N)c1cnc2ccccc2c1 (centres undefined),inactive: -11.7%
15,COc1ccccc1NC(=O)c1cc2ccccc2nc1C,inconclusive: -59.3%
16,O=C1CC(c2cccs2)CC(O)=C1C=NCCN1CCNCC1 (centres undefined),inconclusive: -45.3%
17,Cn1ncc2c(Nc3ccc(-c4ccccc4)cc3)ncnc21,inconclusive: -44%
18,CN(C(=O)COc1ccc([N+](=O)[O-])cc1)C1CCS(=O)(=O)C1 (centres undefined),inconclusive: -52.7%
19,CNc1snc(C)c1C(=O)OC(C)C(=O)Nc1cccc(OC)c1 (centres undefined),inconclusive: -55.3%
20,Fc1cccc(CSc2ccc3nnc(-c4cccnc4)n3n2)c1,inconclusive: -40.1%
21,Cc1ccc(OCc2cc(C(=O)NCc3cc(F)ccc3C)no2)cn1,inconclusive: -54.2%
22,Cn1c(=O)c2sccc2n2c(CCCC(=O)Nc3ccc(Oc4ccc(Cl)cc4)cc3)nnc12,active: -76.3%
23,Cc1cc(C)c2nc(NC(=O)C3CSC4(C)CCC(=O)N34)sc2c1 (centres undefined),inconclusive: 0%
24,CCN(CC)CCn1c(=N)n(CCOc2ccccc2)c2ccccc21,inconclusive: -59.1%

# Retrieved one by one from the entries so far, 2 records:
row,SMILES,"activity change, negative = inhibition"
14,CC(C)CCNC(=O)C(C)N(C(=O)c1snc(C(N)=O)c1N)c1cnc2ccccc2c1 (centres undefined),inactive: -11.7%
7,NS(=O)(=O)c1ccc(N/N=C/c2cn(-c3ccccc3)nc2-c2ccccc2)c([N+](=O)[O-])c1,active: -81%
